Data as given in PMC7761126.
These are yes or no findings as the source states them, for the method shown. In cells and extracts the contact can be indirect. A result given as binding can be weak or reduced; the word gives no strength.

Tests used:
[1] = molecular target: T1, leucine-rich repeat in flightless 1 interaction protein 1 (rat (endogenous in primary cortical neurons and brain)) (UniProt Q66HF9); experiment: co-IP; direct and reverse: ischemic rat brain tissue homogenate (MCAO) in SDS-free RIPA, overnight with anti-DAPK1 or anti-LRRFIP1 capture antibody, protein G magnetic beads, SDS elution, WB
T1 sequence: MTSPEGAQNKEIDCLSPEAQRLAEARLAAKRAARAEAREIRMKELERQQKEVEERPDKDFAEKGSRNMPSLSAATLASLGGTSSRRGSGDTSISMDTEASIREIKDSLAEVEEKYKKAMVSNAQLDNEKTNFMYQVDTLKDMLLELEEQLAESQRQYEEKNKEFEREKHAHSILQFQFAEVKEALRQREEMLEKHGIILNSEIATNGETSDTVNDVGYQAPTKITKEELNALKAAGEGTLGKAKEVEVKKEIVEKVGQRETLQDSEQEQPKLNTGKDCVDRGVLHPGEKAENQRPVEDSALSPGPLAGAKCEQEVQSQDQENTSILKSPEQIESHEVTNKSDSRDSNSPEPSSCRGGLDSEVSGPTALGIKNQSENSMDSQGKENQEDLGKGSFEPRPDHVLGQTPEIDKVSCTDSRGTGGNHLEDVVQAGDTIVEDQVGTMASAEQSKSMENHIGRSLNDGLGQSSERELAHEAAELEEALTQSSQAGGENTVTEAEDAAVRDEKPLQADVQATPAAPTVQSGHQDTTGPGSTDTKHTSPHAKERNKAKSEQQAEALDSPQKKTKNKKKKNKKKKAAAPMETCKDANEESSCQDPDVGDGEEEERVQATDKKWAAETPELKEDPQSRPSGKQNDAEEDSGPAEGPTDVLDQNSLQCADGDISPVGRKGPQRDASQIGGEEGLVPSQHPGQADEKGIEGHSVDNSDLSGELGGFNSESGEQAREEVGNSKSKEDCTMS

[2] = molecular target: T1, leucine-rich repeat in flightless 1 interaction protein 1 (rat (endogenous in primary cortical neurons and brain)); experiment: co-IP; direct and reverse: extracts of primary rat cortical neurons (control, NMDA 30 min or OGD) in SDS-free RIPA, overnight with anti-DAPK1 or anti-LRRFIP1 capture antibody, protein G magnetic beads, SDS elution, WB
[3] = molecular target: Death-associated protein kinase 1 (rat (endogenous in primary cortical neurons and brain)); experiment: co-IP; IP of DAPK1 with anti-DAPK1 antibody from extracts of rat cortical neurons (control or OGD), Dynabeads Co-IP kit elution buffer, partners detected by WB
[4] = molecular target: Death-associated protein kinase 1 (rat (endogenous in primary cortical neurons and brain)); experiment: co-IP; direct and reverse: ischemic rat brain tissue homogenate (MCAO) in SDS-free RIPA, overnight with anti-DAPK1 or anti-LRRFIP1 capture antibody, protein G magnetic beads, SDS elution, WB
[5] = molecular target: Death-associated protein kinase 1 (rat (endogenous in primary cortical neurons and brain)); experiment: co-IP; direct and reverse: extracts of primary rat cortical neurons (control, NMDA 30 min or OGD) in SDS-free RIPA, overnight with anti-DAPK1 or anti-LRRFIP1 capture antibody, protein G magnetic beads, SDS elution, WB

Death-associated protein kinase 1 (enzyme)
binding [1]: binds
binding [2]: binds

B1: leucine-rich repeat in flightless 1 interaction protein 1 (protein, UniProt Q66HF9 1-738)
chain: T1 sequence
binding [3]: binds
binding [4]: binds
binding [5]: binds

B2: GAIP interacting protein at C terminus (protein, UniProt Q9Z254 1-333)
chain: MPLGLGRRKKAPPLVENEEAEPSRSGLGVGEPGPLGGSGAGESQMGLPPPPASLRPRLVFHTQLAHGSPTGRIEGFTNVKELYGKIAEAFRLPAAEVMFCTLNTHKVDMDKLLGGQIGLEDFIFAHVKGQRKEVEVFKSEDALGLTITDNGAGYAFIKRIKEGSVIDHIQLISVGDMIEAINGQSLLGCRHYEVARLLKELPRGRTFTLKLTEPRKAFDMISQRSSGGHPGSGPQLGTGRGTLRLRSRGPATVEDLPSAFEEKAIEKVDDLLESYMGIRDTELAATMVELGKDKRNPDELAEALDERLGDFAFPDEFVFDVWGAIGDAKVGRY
binding [3]: binds
